PubChem BioAssay AID743121 | NCATS – 2013
Assay: 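Knock-downs that sensitise breast cancer cells to camptothecin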 (primary screen). System: MDA-MB-231 cells, a human breast cancer line. Reagent: single siRNA against human genes, 20 nM siRNA (0.8 pmol per well). Timing: 120 h (drug added 48 h after transfection, read 72 h later). Challenge: camptothecin 20 nM (about EC30) for 72 h; vehicle 0.1% DMSO in parallel plates. Read-out: 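CellTiter-Glo ATP signal, scaled to control siRNA as percent viability; sensitisation given as log2 of untreated divided by camptothecin-treated viability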. Reading the numbers: log2 vehicle/camptothecin viability: higher = stronger sensitisation to camptothecin. Active means: 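Each gene scored by redundant siRNA activity (RSA) over its individual siRNA ratios; a gene is called active at p < 0.001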.
Here is one part, drawn at random, of about 26,000 reagents. 167 of them (0.63%) were called active. 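Calls are per gene from RSA p-values that are not deposited; an individual active-marked siRNA can sensitise only weakly.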 The numbers tell different reagents against one gene apart. Not all columns of the deposit are shown. No sequences are given here.

For INS #1, how do the results read?
log2 vehicle/camptothecin viability: 1.19; outcome: inactive

Which result is listed for INS #2?
log2 vehicle/camptothecin viability: 0.256; outcome: inactive

With INS #3, what does the deposit list?
log2 vehicle/camptothecin viability: -0.328; outcome: inactive

With INS #4, what was measured?
log2 vehicle/camptothecin viability: -0.439; outcome: inactive

What did the screen give for SVIL #1?
log2 vehicle/camptothecin viability: -0.356; outcome: inactive

What is on record for SVIL #2?
log2 vehicle/camptothecin viability: -0.432; outcome: inactive

For SVIL #3, how do the results read?
log2 vehicle/camptothecin viability: -0.189; outcome: inactive

With SVIL #4, how do the results read?
log2 vehicle/camptothecin viability: -0.0868; outcome: inactive

With OR10H5 #1, how do the results read?
log2 vehicle/camptothecin viability: -0.369; outcome: inactive

How did the screen score OR10H5 #2?
log2 vehicle/camptothecin viability: 0.0314; outcome: inactive

For OR10H5 #3, what does the deposit list?
log2 vehicle/camptothecin viability: 0.0606; outcome: inactive

For CSNK2A1 #1, what was measured?
log2 vehicle/camptothecin viability: -0.378; outcome: inactive

For CSNK2A1 #2, what was measured?
log2 vehicle/camptothecin viability: 0.121; outcome: inactive

With CSNK2A1 #3, what does the deposit list?
log2 vehicle/camptothecin viability: -0.0365; outcome: inactive

With CSNK2A1 #4, how do the results read?
log2 vehicle/camptothecin viability: -0.362; outcome: inactive

2 entries already listed, arranged by “log2 vehicle/camptothecin viability”, high to low.
SVIL #1: log2 vehicle/camptothecin viability = -0.356; outcome = inactive
INS #4: log2 vehicle/camptothecin viability = -0.439; outcome = inactive

The results go on.
With SIGLEC9 #1, what was measured?
log2 vehicle/camptothecin viability: -0.0232; outcome: inactive

For SIGLEC9 #2, what does the deposit list?
log2 vehicle/camptothecin viability: -0.1; outcome: inactive

What did the screen give for SIGLEC9 #3?
log2 vehicle/camptothecin viability: -0.504; outcome: inactive

For SIGLEC9 #4, what does the deposit list?
log2 vehicle/camptothecin viability: -0.345; outcome: inactive

What did the screen give for IL12A #1?
log2 vehicle/camptothecin viability: -0.22; outcome: inactive

For IL12A #2, what does the deposit list?
log2 vehicle/camptothecin viability: -0.212; outcome: inactive

With IL12A #3, what was measured?
log2 vehicle/camptothecin viability: 0.106; outcome: inactive

How did the screen score SP140L #1?
log2 vehicle/camptothecin viability: 0.0406; outcome: inactive

For SP140L #2, what was measured?
log2 vehicle/camptothecin viability: -0.326; outcome: inactive

How did the screen score SP140L #3?
log2 vehicle/camptothecin viability: -0.215; outcome: inactive

For FBXO9 #1, how do the results read?
log2 vehicle/camptothecin viability: 0.0678; outcome: inactive

What did the screen give for FBXO9 #2?
log2 vehicle/camptothecin viability: -0.208; outcome: inactive

How did the screen score FBXO9 #3?
log2 vehicle/camptothecin viability: -0.113; outcome: inactive

For FBXO9 #4, how do the results read?
log2 vehicle/camptothecin viability: -0.39; outcome: inactive

With TKFC #1, what does the deposit list?
log2 vehicle/camptothecin viability: -0.00684; outcome: inactive

For TKFC #2, what does the deposit list?
log2 vehicle/camptothecin viability: 0.144; outcome: inactive

How did the screen score TKFC #3?
log2 vehicle/camptothecin viability: -0.199; outcome: inactive

What is on record for RNF39 #1?
log2 vehicle/camptothecin viability: 0.613; outcome: inactive

Which result is listed for RNF39 #2?
log2 vehicle/camptothecin viability: 0.0206; outcome: inactive

For RNF39 #3, what does the deposit list?
log2 vehicle/camptothecin viability: -0.16; outcome: inactive
